Measurements taken from PMC9541495, “Understanding the interaction of 14‐3‐3 proteins with hDMX and hDM2: a structural and biophysical study” (The Febs Journal, 2022).
Results are given in words; binding and its absence hold for the method and conditions named. Some results given as binding are weak or reduced against the parent protein; the word gives no strength.

B1: Ac‐hDMX_(361‐374) ^pSer367 (peptide)
peptide: DCRRTISAPVVRPK
modifications: phosphoserine at 367 (seventh residue); N-terminal acetyl; C-terminal amide
B2: Ac‐hDM2_(180‐192) ^pSer186 (peptide)
peptide: QRKRHKSDSISLS
modifications: phosphoserine at 186 (seventh residue); N-terminal acetyl; C-terminal amide
B3: Ac‐hDMX_(335‐373) ^pSer342/pSer367 (peptide)
peptide: SKLTHSLSTSDITAIPEKENEGNDVPDCRRTISAPVVRP
modifications: phosphoserine at 342 and at 367; N-terminal acetyl; C-terminal amide
B4: 14‐3‐3σ∆C (domain or fragment, UniProt P31947 1-231)
chain: MERASLIQKAKLAEQAERYEDMAAFMKGAVEKGEELSCEERNLLSVAYKNVVGGQRAAWRVLSSIEQKSNEEGSEEKGPEVREYREKVETELQGVCDTVLGLLDSHLIKEAGDAESRVFYLKMKGDYYRYLAEVATGDDKKRIIDSARSAYQEAMDISKKEMPPTNPIRLGLALNFSVFHYEIANSPEEAISLAKTTFDEAMADLHTLSEDSYKDSTLIMQLLRDNLTLWT

Biological target: T1, 14‐3‐3σ∆C (human) (UniProt P31947)
T1 sequence: B4 chain
Assay: crystal structure; 14-3-3σ∆C (12-14 mg/mL) incubated overnight with peptide in 1:2 molar ratio; crystals at 4 °C; molecular replacement with 4DAT; both purified

Row | Binder | binding
1 | B1 | binds
2 | B2 | binds
3 | B3 | binds
4 | B4 | binds
